Structures can show the parent of a compound that is named as a salt. This is one part of the list. Hit calls seldom repeat between salt and free forms of one compound.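 Kinases were expressed as nanoluciferase fusions in K562 cells and luminescence was read every 4 h between 2 and 18 h as percent of control, DMSO set to 100% and a positive control to 0%. A time point counts as decreased when the signal drops significantly (2 sigma). The hit call is the authors' own, does not follow from the count of time points alone, and its rule is not shown.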
biological target: RET_M918T (clone: RET_mut) (UniProt P07949); test: kinase-Nluc reporter destabilization hit call (1 = scored as downregulated) (binary); higher = compound decreases kinase abundance; conditions: K562; 2-18 h

By UniProt entry, the sequences of proteins in these tests, tags left out.
UniProt P07949, whole entry M918T, looked up: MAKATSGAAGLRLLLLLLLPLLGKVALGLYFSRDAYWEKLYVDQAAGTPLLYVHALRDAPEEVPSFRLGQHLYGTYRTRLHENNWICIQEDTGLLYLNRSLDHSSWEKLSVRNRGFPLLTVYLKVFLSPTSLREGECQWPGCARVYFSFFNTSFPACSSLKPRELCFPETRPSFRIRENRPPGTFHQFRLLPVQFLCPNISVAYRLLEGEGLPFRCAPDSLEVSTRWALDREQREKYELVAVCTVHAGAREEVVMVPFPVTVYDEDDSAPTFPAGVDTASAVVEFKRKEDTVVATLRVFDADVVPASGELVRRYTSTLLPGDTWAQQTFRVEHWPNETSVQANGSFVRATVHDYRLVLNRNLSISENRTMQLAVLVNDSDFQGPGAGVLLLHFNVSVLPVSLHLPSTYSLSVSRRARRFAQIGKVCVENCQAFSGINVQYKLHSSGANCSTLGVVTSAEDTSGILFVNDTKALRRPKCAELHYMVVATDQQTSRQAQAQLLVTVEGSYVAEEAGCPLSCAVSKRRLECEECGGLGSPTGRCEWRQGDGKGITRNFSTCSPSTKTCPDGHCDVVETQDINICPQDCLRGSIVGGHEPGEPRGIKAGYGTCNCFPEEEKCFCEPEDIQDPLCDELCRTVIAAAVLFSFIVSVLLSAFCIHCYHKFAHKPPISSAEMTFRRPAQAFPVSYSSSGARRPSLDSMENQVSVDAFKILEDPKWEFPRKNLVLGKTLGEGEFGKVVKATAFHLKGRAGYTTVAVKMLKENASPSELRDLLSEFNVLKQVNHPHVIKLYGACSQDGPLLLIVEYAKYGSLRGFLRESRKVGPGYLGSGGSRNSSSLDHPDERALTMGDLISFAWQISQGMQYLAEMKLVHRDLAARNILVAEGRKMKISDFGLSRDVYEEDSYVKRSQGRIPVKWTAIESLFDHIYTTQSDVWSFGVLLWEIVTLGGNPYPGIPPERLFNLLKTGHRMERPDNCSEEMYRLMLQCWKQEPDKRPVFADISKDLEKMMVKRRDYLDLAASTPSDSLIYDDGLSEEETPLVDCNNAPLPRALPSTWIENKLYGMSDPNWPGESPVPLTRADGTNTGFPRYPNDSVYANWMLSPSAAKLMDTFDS

kinase-Nluc reporter destabilization hit call, inactive:
Cc1cc(C)nc(NS(=O)(=O)c2ccc(NC(=S)NC(=O)COc3ccc(Br)cc3Cl)cc2)n1 (2.5 µM) 0
Oc1ccc(/C=C/c2cc(O)cc(O)c2)cc1 [Resveratrol] (10 µM) 0
COc1ccc(S(=O)(=O)NCc2ccc(C(=O)NCCc3ccc(Cl)cn3)cc2)cc1 (10 µM) 0
O=c1[nH]c(C2CCCN2)nc2c1oc1ccc(Cl)cc12 (configuration not stated) [XL413 (hydrochloride)] (10 µM) 0
O=C(NC1CCOCC1)c1ccc(-c2cc(-c3c[nH]nc3-c3ccccn3)ccn2)cc1 (10 µM) 0
N#Cc1c2nc3ccccc3nc2n2ccc(NC(=O)c3cccs3)cc12 (10 µM) 0
COCCNc1cc(NC(=O)N2CCCc3cc(CN4CCN(C)CC4=O)c(C=O)nc32)ncc1C#N [Roblitinib] (10 µM) 0
CN(C)CCC=C1c2ccccc2CCc2ccccc21 [Amitriptyline (hydrochloride)] (2.5 µM) 0
Cn1cc(C2=C(c3cn(CCCSC(=N)N)c4ccccc34)C(=O)NC2=O)c2ccccc21 [Ro 31-8220 (mesylate)] (2.5 µM) 0
CC(C)(C)n1nc(Cc2ccccc2O)c2c(N)ncnc21 (10 µM) 0
COc1cc2ncnc(Nc3ccc(F)c(Cl)c3)c2cc1NC(=O)/C=C/CN1CCCCC1 [Dacomitinib] (10 µM) 0
C[C@@H]1COCCN1c1nc(-c2cnc(N)cc2C(F)F)nc(N2[C@H](C)COC[C@@H]2C)n1 (2.5 µM) 0

From the supplement of paper PMC12823440, “Inhibitors supercharge kinase turnover through native proteolytic circuits” (Nature, 2025)
